Test results taken from ChEMBL document CHEMBL2407053, “Pharbinilic acid, an allogibberic acid from morning glory (Pharbitis nil)” (J Nat Prod, 2013).

Tested on: A549
Assay: Cytotoxicity against human A549 cells by sulforhodamine B assay
Format: functional, cell-based

COc1cccc2c1C(=O)c1c(O)c3c(c(O)c1C2=O)C[C@@](O)(C(=O)CO)C[C@@H]3O[C@H]1C[C@H](N)[C@H](O)[C@H](C)O1 [DOXORUBICIN]
IC50: 0.02 µM
